The values below come from article PMC6978637 (Saudi Pharmaceutical Journal : SPJ, 2019).

The assay concerns NIH-3T3 cells. The assay can be described thus: WST-1 cytotoxicity assay. The class given is cell-based. As to conditions: Mus musculus, NIH3T3, 48 h, read-out: NIH-3T3 Cells IC50.

In the case of `CN[C@@H]1C[C@H]2O[C@@](C)([C@@H]1OC)n1c3ccccc3c3c4c(c5c6ccccc6n2c5c31)C(=O)NC4` [Staurosporin, Staurosporine, reference compound], the half-maximal inhibitory concentration (IC50) worked out at 39 ± 2.28 nM.
